No constants are given. Whether binding was seen depends on the method and setting. Binding seen in cells or lysates may run through a third protein. Some entries that bind do so weakly or less than the wild type.
How the values were obtained:
GFP-SMN wt (human) = GFP-SMN wt (human) (UniProt Q16637); assay: co-IP; GFP immunopurification: S100 extracts of doxycycline-induced (0.1 µg/mL, 24 h) Flp-In T-REx 293 cells on GFP-Trap beads, at least 2 h at 4 °C, washed 3 times with DPBS; Western blot
GFP-Gemin2 S166D (human) = GFP-Gemin2 S166D (human) (UniProt O14893); assay: as above
GFP-Gemin2 S166A (human) = GFP-Gemin2 S166A (human) (UniProt O14893); assay: as above
GFP-Gemin2 S81D (human) = GFP-Gemin2 S81D (human) (UniProt O14893); assay: as above
GFP-Gemin2 S81A (human) = GFP-Gemin2 S81A (human) (UniProt O14893); assay: as above
GFP-Gemin2 wt (human) = GFP-Gemin2 wt (human) (UniProt O14893); assay: as above
GST-Gemin2 S81D (human) = GST-Gemin2 S81D (human) (UniProt O14893); assay: pull-down; recombinant GST proteins on glutathione Sepharose 4B incubated 2 h at 4 °C with HEK293T S100 (cytoplasmic) extract, washed 3 times with lysis buffer; Western blot; only the target purified
GST-Gemin2 S166D (human) = GST-Gemin2 S166D (human) (UniProt O14893); assay: as above
[1] = biological target: GST-Gemin2 wild type (wt) (human) (UniProt O14893); assay: as above
GST-Gemin2 S166A (human) = GST-Gemin2 S166A (human) (UniProt O14893); assay: as above
GST-Gemin2 S81A (human) = GST-Gemin2 S81A (human) (UniProt O14893); assay: as above

Chains of the proteins cited; added tags and fusions are not shown. Lines headed by an entry give the natural chain unless they say otherwise; changes in a name come on top.
UniProt Q16637: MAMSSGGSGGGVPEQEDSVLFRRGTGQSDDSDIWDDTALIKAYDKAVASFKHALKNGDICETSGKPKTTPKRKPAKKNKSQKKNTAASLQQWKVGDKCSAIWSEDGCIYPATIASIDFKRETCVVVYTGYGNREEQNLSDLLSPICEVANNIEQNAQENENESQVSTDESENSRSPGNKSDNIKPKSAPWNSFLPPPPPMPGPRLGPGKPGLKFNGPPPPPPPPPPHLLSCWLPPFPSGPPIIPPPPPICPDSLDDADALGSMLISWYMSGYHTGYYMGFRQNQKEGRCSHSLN
UniProt O14893: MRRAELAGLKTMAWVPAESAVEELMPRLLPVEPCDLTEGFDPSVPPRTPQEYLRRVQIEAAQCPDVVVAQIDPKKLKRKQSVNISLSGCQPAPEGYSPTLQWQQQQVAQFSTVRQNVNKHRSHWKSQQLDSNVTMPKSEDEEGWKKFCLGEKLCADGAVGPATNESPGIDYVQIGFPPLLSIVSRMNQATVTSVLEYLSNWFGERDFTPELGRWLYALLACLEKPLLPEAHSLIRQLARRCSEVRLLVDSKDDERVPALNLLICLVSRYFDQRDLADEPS
UniProt Q9UHI6: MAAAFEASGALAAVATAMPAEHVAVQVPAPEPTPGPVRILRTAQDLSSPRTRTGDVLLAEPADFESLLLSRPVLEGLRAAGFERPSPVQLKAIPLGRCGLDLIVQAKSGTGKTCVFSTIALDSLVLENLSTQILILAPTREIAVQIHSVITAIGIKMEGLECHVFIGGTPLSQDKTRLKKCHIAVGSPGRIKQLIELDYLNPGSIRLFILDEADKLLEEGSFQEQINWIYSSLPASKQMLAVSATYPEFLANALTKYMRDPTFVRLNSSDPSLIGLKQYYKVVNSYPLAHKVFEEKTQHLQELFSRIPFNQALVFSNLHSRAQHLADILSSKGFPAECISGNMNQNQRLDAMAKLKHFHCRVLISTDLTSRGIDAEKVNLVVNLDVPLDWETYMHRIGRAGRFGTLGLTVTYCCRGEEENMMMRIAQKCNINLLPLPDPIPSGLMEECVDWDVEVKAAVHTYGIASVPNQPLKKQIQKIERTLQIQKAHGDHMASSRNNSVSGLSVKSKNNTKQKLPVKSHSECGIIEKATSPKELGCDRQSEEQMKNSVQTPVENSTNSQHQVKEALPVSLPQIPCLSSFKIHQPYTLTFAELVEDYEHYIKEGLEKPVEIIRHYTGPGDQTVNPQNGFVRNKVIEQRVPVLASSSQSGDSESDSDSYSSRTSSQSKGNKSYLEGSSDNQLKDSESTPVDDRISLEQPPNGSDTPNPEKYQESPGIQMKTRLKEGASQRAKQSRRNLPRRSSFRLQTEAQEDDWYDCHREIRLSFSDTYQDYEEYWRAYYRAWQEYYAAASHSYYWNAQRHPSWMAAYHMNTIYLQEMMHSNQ
UniProt P57678: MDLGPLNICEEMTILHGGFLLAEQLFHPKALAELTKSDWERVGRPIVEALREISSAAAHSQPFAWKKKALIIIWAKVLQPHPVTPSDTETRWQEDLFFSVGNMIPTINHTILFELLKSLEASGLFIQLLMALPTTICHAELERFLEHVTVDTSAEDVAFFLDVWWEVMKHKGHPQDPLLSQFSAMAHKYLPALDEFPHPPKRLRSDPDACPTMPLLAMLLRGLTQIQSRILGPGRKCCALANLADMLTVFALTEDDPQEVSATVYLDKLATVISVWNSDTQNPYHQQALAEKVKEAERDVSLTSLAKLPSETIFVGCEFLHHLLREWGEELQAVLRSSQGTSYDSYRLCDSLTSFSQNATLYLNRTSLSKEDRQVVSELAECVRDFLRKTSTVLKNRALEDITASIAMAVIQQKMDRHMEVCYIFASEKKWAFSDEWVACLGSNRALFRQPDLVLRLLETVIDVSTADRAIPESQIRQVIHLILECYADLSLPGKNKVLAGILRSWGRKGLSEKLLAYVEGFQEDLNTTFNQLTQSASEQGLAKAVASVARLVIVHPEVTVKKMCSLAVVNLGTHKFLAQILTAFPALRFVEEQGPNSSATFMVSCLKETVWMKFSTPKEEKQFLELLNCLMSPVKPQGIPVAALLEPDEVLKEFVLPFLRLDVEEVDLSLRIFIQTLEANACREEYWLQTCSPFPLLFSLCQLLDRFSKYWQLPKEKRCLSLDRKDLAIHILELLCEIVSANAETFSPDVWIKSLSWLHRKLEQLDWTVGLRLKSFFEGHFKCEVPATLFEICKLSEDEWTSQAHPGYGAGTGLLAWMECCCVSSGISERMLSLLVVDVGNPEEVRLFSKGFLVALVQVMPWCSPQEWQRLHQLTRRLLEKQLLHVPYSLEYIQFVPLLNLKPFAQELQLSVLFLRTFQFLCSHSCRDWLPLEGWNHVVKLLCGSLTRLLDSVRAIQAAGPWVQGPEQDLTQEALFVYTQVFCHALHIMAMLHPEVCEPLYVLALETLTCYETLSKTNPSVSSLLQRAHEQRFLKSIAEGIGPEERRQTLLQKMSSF
UniProt Q8TEQ6: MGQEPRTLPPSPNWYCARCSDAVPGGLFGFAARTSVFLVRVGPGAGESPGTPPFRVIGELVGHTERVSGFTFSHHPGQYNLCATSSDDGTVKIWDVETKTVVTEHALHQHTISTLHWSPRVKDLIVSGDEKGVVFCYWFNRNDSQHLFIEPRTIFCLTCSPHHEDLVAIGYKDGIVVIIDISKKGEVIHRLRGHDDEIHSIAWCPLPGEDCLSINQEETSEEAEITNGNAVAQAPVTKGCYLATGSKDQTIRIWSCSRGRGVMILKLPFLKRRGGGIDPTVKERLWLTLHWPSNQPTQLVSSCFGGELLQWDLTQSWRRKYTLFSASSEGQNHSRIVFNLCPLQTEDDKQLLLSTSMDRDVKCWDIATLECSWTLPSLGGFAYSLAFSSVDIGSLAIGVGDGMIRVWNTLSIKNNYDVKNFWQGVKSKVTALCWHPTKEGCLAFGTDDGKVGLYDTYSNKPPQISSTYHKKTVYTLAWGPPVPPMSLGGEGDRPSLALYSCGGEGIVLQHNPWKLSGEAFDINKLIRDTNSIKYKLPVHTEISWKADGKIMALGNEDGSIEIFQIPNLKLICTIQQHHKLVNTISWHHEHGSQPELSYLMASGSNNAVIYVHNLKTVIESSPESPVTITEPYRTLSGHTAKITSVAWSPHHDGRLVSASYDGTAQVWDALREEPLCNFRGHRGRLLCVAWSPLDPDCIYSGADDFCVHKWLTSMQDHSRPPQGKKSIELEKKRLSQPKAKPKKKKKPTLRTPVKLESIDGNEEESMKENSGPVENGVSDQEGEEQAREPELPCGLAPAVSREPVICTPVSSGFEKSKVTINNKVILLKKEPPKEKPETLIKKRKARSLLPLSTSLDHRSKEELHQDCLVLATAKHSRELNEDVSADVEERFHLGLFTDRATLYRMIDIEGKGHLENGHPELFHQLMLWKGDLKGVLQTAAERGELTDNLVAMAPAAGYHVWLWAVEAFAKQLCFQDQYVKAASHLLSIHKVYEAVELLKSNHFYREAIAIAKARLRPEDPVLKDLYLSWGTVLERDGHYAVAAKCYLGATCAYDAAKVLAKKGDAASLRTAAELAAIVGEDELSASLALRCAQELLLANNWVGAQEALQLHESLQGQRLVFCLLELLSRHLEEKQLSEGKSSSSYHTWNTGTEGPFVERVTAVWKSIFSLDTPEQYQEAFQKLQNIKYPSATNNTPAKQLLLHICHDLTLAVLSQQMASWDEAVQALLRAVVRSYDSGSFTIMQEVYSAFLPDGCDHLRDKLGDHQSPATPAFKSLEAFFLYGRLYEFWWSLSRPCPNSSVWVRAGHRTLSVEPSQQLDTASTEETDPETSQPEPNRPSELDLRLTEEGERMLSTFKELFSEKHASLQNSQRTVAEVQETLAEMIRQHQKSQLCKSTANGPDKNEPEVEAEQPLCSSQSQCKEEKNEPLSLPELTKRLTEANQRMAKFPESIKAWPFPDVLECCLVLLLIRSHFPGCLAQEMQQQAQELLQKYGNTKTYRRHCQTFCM

Measured: binding

Gemin2 (endogenous) (from UniProt O14893 1-280)
binds: GFP-SMN wt (human) | GFP-Gemin2 S166D (human) | GFP-Gemin2 S166A (human) | GFP-Gemin2 S81D (human) | GFP-Gemin2 S81A (human)

Gemin3 (endogenous) (from UniProt Q9UHI6 1-824)
binds: GFP-SMN wt (human) | GFP-Gemin2 S166D (human) | GFP-Gemin2 S166A (human) | GFP-Gemin2 S81D (human) | GFP-Gemin2 S81A (human) | GFP-Gemin2 wt (human)

Gemin4 (endogenous) (from UniProt P57678 1-1058)
binds: GFP-Gemin2 S166D (human) | GFP-Gemin2 S166A (human) | GFP-Gemin2 S81D (human) | GFP-Gemin2 S81A (human)

Gemin5 (endogenous) (from UniProt Q8TEQ6 1-1508)
binds: GFP-SMN wt (human) | GFP-Gemin2 S166D (human) | GFP-Gemin2 S166A (human) | GFP-Gemin2 S81D (human) | GFP-Gemin2 S81A (human) | GFP-Gemin2 wt (human)

survival motor neuron (SMN) protein (endogenous) (from UniProt Q16637 1-294)
not listed: GFP-SMN wt (human)
binds: all other assays above

From publication PMC10649565
